The text below walks through data of publication PMC5495492.

In this assay the target is T1, HA-mTCP4 (Arabidopsis thaliana) (UniProt Q8LPR5).
T1 sequence: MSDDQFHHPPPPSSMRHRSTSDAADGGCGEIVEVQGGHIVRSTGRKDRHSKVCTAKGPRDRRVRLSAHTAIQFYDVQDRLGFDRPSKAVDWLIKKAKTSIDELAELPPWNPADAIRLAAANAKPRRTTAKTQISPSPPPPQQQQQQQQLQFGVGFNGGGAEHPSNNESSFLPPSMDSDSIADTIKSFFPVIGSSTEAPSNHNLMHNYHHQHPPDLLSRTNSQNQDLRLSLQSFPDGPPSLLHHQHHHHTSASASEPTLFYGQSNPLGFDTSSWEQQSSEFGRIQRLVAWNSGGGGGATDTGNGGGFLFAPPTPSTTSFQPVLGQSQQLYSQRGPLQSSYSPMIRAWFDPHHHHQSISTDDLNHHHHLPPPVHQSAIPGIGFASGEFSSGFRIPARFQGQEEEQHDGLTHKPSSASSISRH
Put plainly: co-IP; 35S:HA-mTCP4 and 35S:GI-6H3F infiltrated into N. benthamiana plants grown in LD; co-IP as in ref. 67.

These are yes or no findings as the source states them, for the method shown. In cells and extracts the contact can be indirect. Some results given as binding are weak or reduced against the parent protein; the word gives no strength. Tags and fused reporters may be left off the sequences shown.

B1: GI-3F6H (35S:GI-6H3F) (protein, UniProt Q9SQI2 1-1173)
chain: MASSSSSERWIDGLQFSSLLWPPPRDPQQHKDQVVAYVEYFGQFTSEQFPDDIAELVRHQYPSTEKRLLDDVLAMFVLHHPEHGHAVILPIISCLIDGSLVYSKEAHPFASFISLVCPSSENDYSEQWALACGEILRILTHYNRPIYKTEQQNGDTERNCLSKATTSGSPTSEPKAGSPTQHERKPLRPLSPWISDILLAAPLGIRSDYFRWCSGVMGKYAAGELKPPTIASRGSGKHPQLMPSTPRWAVANGAGVILSVCDDEVARYETATLTAVAVPALLLPPPTTSLDEHLVAGLPALEPYARLFHRYYAIATPSATQRLLLGLLEAPPSWAPDALDAAVQLVELLRAAEDYASGVRLPRNWMHLHFLRAIGIAMSMRAGVAADAAAALLFRILSQPALLFPPLSQVEGVEIQHAPIGGYSSNYRKQIEVPAAEATIEATAQGIASMLCAHGPEVEWRICTIWEAAYGLIPLNSSAVDLPEIIVATPLQPPILSWNLYIPLLKVLEYLPRGSPSEACLMKIFVATVETILSRTFPPESSRELTRKARSSFTTRSATKNLAMSELRAMVHALFLESCAGVELASRLLFVVLTVCVSHEAQSSGSKRPRSEYASTTENIEANQPVSNNQTANRKSRNVKGQGPVAAFDSYVLAAVCALACEVQLYPMISGGGNFSNSAVAGTITKPVKINGSSKEYGAGIDSAISHTRRILAILEALFSLKPSSVGTPWSYSSSEIVAAAMVAAHISELFRRSKALTHALSGLMRCKWDKEIHKRASSLYNLIDVHSKVVASIVDKAEPLEAYLKNTPVQKDSVTCLNWKQENTCASTTCFDTAVTSASRTEMNPRGNHKYARHSDEGSGRPSEKGIKDFLLDASDLANFLTADRLAGFYCGTQKLLRSVLAEKPELSFSVVSLLWHKLIAAPEIQPTAESTSAQQGWRQVVDALCNVVSATPAKAAAAVVLQAERELQPWIAKDDEEGQKMWKINQRIVKVLVELMRNHDRPESLVILASASDLLLRATDGMLVDGEACTLPQLELLEATARAIQPVLAWGPSGLAVVDGLSNLLKCRLPATIRCLSHPSAHVRALSTSVLRDIMNQSSIPIKVTPKLPTTEKNGMNSPSYRFFNAASIDWKADIQNCLNWEAHSLLSTTMPTQFLDTAARELGCTISLSQ
Consider B1, for which the binding entry is “binds”.
